Among the targets are YFP-BubR1 B1TPR (UniProt O60566); YFP-BubR1 Y141A (human) (UniProt O60566); YFP-BubR1 W295A (human) (UniProt O60566).
What all share (experiment): co-IP
Test [1] has as its target YFP-BubR1 W125A/L128A/C132A/M138A (human) (UniProt O60566).
For test [2], the target named is YFP-BubR1 V200A/L205A (human) (UniProt O60566).
For test [3], the target named is YFP-BubR1 E134R/D137R (human) (UniProt O60566).
The target in test [4] is YFP-BubR1 W22A/E23A (human) (UniProt O60566).
Test [5] deals with YFP-BubR1 NNSR/4A (human) (UniProt O60566).

Chains of the proteins cited; added tags and fusions are not shown. Lines headed by an entry give the natural chain unless they say otherwise; changes in a name come on top. A line that says so, or that is headed by a name, gives the form on record, which may keep a tag or linker.
UniProt O60566: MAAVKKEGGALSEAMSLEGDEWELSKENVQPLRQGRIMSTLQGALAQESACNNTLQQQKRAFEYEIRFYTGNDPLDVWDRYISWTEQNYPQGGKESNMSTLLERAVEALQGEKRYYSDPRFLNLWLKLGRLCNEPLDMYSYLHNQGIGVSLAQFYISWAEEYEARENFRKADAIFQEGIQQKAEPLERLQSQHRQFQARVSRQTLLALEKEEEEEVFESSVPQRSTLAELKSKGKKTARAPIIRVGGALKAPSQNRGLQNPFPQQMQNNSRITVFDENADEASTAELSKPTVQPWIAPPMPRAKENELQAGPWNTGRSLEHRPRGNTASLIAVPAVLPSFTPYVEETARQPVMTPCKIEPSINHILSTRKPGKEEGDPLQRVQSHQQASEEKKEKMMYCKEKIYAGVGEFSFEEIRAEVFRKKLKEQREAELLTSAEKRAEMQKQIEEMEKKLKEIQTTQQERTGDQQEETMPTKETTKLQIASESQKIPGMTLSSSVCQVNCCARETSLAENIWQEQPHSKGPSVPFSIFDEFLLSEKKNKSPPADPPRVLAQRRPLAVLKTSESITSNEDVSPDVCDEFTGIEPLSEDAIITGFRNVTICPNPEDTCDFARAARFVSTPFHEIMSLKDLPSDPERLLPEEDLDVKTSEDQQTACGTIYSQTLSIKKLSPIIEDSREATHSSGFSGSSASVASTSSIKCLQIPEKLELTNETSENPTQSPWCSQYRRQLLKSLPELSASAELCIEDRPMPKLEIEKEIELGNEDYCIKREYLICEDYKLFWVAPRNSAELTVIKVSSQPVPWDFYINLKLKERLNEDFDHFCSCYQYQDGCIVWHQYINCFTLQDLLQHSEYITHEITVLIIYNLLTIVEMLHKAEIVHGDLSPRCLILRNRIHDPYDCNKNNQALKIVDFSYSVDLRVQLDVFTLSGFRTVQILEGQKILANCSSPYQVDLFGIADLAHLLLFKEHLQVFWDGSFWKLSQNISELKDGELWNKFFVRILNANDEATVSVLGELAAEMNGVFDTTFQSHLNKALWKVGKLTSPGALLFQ
YFP-BubR1 NNSR/4A (O60566, form named): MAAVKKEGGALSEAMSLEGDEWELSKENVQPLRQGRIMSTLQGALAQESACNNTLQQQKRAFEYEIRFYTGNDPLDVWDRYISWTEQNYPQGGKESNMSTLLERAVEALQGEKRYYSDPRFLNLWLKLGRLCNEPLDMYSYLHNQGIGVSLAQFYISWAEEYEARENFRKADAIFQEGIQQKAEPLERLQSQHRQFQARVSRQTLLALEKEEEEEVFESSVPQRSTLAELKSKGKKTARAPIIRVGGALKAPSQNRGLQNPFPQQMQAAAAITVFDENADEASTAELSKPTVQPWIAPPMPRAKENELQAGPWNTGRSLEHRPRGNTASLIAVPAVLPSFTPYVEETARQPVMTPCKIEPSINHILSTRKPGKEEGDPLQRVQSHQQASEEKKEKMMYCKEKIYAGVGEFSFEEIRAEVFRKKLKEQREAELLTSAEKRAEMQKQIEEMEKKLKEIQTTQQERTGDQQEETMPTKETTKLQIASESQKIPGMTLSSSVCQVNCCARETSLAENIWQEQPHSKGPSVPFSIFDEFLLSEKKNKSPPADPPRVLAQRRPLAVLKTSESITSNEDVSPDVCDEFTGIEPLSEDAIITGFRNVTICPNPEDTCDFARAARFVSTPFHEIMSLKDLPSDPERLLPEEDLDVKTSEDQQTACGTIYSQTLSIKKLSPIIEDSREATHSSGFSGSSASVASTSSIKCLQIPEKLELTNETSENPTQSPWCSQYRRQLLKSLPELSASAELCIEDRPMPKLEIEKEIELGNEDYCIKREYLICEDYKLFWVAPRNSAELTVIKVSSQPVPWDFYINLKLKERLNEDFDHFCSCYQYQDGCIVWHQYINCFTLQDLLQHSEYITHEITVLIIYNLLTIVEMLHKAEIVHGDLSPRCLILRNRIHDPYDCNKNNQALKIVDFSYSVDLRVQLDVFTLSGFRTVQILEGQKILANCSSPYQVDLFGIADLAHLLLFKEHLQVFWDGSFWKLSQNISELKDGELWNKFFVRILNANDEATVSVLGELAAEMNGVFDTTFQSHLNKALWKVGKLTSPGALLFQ
UniProt Q13257: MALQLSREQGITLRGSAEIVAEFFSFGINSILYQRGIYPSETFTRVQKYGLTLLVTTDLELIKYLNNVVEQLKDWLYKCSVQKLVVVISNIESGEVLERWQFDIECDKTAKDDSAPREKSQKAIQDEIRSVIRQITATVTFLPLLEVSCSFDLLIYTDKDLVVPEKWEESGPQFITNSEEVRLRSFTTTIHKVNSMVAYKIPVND

No constants are given. Whether binding was seen depends on the method and setting. In cells and extracts the contact can be indirect. Some entries that bind do so weakly or less than the wild type.

For Mad2 (from UniProt Q13257 1-205), the binding result is “no binding” in the test with YFP-BubR1 B1TPR; “binds” in test [1]; “binds” with YFP-BubR1 Y141A (human); “binds” in test [2]; “binds” in test [3]; “binds” in the test with YFP-BubR1 W295A (human). For the same substance, the binding result in test [4] is “no binding”; in test [5], “binds”.
